Binding data for 1 molecule are collected here from paper PMC3846746.

This assay has as its target B-Raf (rat (endogenous in A7r5)). In words: co-IP; endogenous proteins of A7r5 lysates in IP lysis buffer (50 mmol/L NaCl, 10% glycerol, 1% Nonidet-P40, 10 mmol/L sodium phosphate, pH 8.0); anti-IQGAP1, anti-KSR1, anti-B-Raf or anti-C-Raf cross-linked to Protein G dynabeads, or anti-ERK1/2 cross-linked to protein A agarose, 4°C over night; western blot and densitometry; for the ERK1/2, IQGAP1 and KSR1 IPs cells were unstimulated or stimulated 5 min with DPBA or FCS. (In general: A western blot detects proteins with antibodies after separation by electrophoresis.)

These are yes or no findings as the source states them, for the method shown. Binding seen in cells or lysates may run through a third protein. Binding can be weak; no strength is given.

B1: caveolin-1 (protein, UniProt P41350 1-178)
chain: MSGGKYVDSEGHLYTVPIREQGNIYKPNNKAMADEVNEKQVYDAHTKEIDLVNRDPKHLNDDVVKIDFEDVIAEPEGTHSFDGIWKASFTTFTVTKYWFYRLLSTIFGIPMALIWGIYFAILSFLHIWAVVPCIKSFLIEIQCISRVYSIYVHTFCDPLFEAIGKIFSNIRISTQEEI
In the case of B1, the binding result is on record as “binds weakly”.
